Measured values as given in the supplement of paper PMC3334620.
Over roughly 33,000 sequences, “E-score (-0.5 to 0.5)” has its median near -0.0059; the highest 2% begin near 0.26. Some of the results follow.

target: T1, Cin5 (UniProt P40917); test: PBM E-score (8-mer binding enrichment) (E-score (-0.5 to 0.5)); higher = stronger / more preferred TF binding; conditions: protein concentration: 100 nM; construct: GST-full length
T1 sequence: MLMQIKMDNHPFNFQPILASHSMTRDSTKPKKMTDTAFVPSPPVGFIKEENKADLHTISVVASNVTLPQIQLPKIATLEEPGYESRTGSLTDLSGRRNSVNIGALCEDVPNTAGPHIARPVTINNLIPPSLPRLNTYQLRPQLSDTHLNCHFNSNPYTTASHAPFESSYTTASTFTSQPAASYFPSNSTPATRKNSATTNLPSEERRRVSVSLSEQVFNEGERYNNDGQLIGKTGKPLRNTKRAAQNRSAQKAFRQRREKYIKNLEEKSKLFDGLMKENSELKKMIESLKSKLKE
Outline: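 Universal all-10-mer Agilent arrays, fresh or stripped once, were converted to double-stranded form by primer extension. GST-tagged yeast transcription factors from PURExpress in vitro transcription/translation, full-length or DNA-binding domain only, were applied at about 100-200 nM and detected with fluorescent anti-GST. After masliner normalisation, the Universal PBM Analysis Suite scored each ungapped eight-base word together with its reverse complement by E-score.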

| Sequence | PBM E-score |
| --- | --- |
| AGTAAACC | -0.0179 |
| CGACGTCA | -0.0114 |
| CAATTAAA | 0.202 |
| AATTTCCT | 0.0794 |
| AGACTATA | 0.157 |
| CAGGATCC | 0.00579 |
| ACGACTGG | -0.181 |
| CCTGCCTC | -0.176 |
| CCCGTACG | -0.203 |
| CCTTCAAC | 0.0125 |
| CGGGGCAA | 0.0365 |
| CGTTTCAC | -0.106 |
| ACACGAAC | -0.00907 |
| CACTAACA | 0.127 |
| ATCGTCAT | 0.244 |
| AGTGAGCC | 0.0445 |
| GATCAAAC | 0.0848 |
| AGTTGACG | 0.126 |
| GAAGCCTA | -0.0804 |
| TCAGCCCA | 0.0892 |
| CATCACTC | -0.0607 |
| GCTTGGCC | -0.103 |

No new results follow: entries from further up.

| Sequence | PBM E-score |
| --- | --- |
| CAATTAAA | 0.202 |
| AATTTCCT | 0.0794 |
| AGACTATA | 0.157 |
| CAGGATCC | 0.00579 |
| ACGACTGG | -0.181 |
| CCTGCCTC | -0.176 |
| CCCGTACG | -0.203 |
| CCTTCAAC | 0.0125 |
| CGGGGCAA | 0.0365 |
| CGTTTCAC | -0.106 |
| ACACGAAC | -0.00907 |
| CACTAACA | 0.127 |
| ATCGTCAT | 0.244 |
| AGTGAGCC | 0.0445 |
| GATCAAAC | 0.0848 |
| AGTTGACG | 0.126 |
| GAAGCCTA | -0.0804 |
| TCAGCCCA | 0.0892 |
| CATCACTC | -0.0607 |
| GCTTGGCC | -0.103 |

Carrying on:

| Sequence | PBM E-score |
| --- | --- |
| CTAGAATC | -0.0115 |
| CTTTAAAG | -0.249 |
| CATGTCAG | 0.0592 |
| CTGTCACC | -0.183 |
| TGCCTAAA | -0.0398 |
| CAACGCTG | -0.104 |
| AGCGTTTA | -0.0523 |
| AGAATCTG | -0.00702 |
| GCTAAAAA | -0.154 |
| CACGCATA | -0.0145 |
| ACGTCTTA | -0.0299 |
| CAGAGTAC | -0.137 |
| CGCTGCCG | -0.211 |
| TAACTAAA | 0.0806 |
| GACGGGCC | -0.315 |
| CCGCGGCC | -0.0807 |
| ATTAGGTA | 0.271 |
| GCGCCGCA | 0.0767 |
| GCGCATAA | 0.187 |
| ATCTCCCA | -0.0117 |
| ATCTTACC | -0.0356 |
| GCATAGGA | 5e-05 |

| Sequence | PBM E-score |
| --- | --- |
| ACTAGGTG | -0.15 |
| GTCCGCTA | -0.05 |
| GAAGTGAA | 0.202 |
| AGCGCCCA | -0.243 |
| CCGGTCAG | -0.0737 |
| ATCCGGTC | -0.101 |
| GTCCATAA | -0.0763 |
| AATATCCT | 0.0469 |
| ACTGCAAC | -0.0484 |
| GCCTAGCA | -0.314 |
| CATCTAAA | 0.0623 |
| AAATGCCT | -0.0215 |
| GACATGTA | 0.164 |
| GGGGCAAA | -0.0144 |
| GCCGAAGA | 0.0739 |
| ACCACAAC | 0.148 |
| ATTTAGCG | -0.0297 |
| ACTGCATA | 0.0427 |
| CCGCCCAG | -0.114 |
| GACTGCTA | -0.114 |
| CTGGGCTC | -0.2 |
| ACTTAACT | 0.175 |

| Sequence | PBM E-score |
| --- | --- |
| CAATGGAC | 0.051 |
| CTCGGGCC | -0.103 |
| CCCAGACC | -0.167 |
| CGAGTCCA | -0.183 |
| GAGCGAAA | 0.0812 |
| GACCGTGC | -0.234 |
| CCGTCTCC | -0.165 |
| CAGGAGCG | -0.0881 |
| AAGGGTGA | -0.0502 |
| GTGAGCGA | -0.0285 |
| AGGCTGAA | -0.148 |
| AGAGACCC | -0.137 |
| ACTCGTAT | 0.114 |
| CACACTAA | 0.206 |
| AAGTACGA | 0.202 |
| GGGACGGA | -0.282 |
| CAGGCATA | -0.108 |
| GATAGCAC | -0.0042 |
| TCCCACCA | -0.166 |
| CGGAACAG | 0.205 |
